The results in this text go back to patent US9868773B2 (DAPHOT ENTERPRISES LIMITED, priority 2014, dated 2018).

The nature of the data set: general procedure: peptide synthesis; 2-chlorotrityl resin (1.5 mM/g capacity); DIC/HOBt. The note with it: whole synthesis.
Setting [1] is: HELC, scale of the general procedure 6.0 g resin (fragments), 2.0 g resin (final peptide).
Where [2] appears, read: scale of the general procedure 6.0 g resin (fragments), 2.0 g resin (final peptide).

In turn, “14-glycine-exendin-4 (Heloderma suspectum)-(1-39)-peptidyl-octa-D-arginyl-glycine” gave an isolated mass of 3.9 g. Further, under setting [1], the “final HPLC purity” value is given as 97.5%. For the same substance, under setting [2], the isolated yield came out at 20%.
As to “Boc-His(Trt)-Gly-Glu(OtBu)-Gly-Thr(tBu)-Phe-Thr(tBu)-Ser(tBu)-Asp(OtBu)-Leu-Ser(tBu)-Lys(Boc)-Gln(Trt)-Gly-OH”, the crude mass is 20.9 g. Besides, the “crude HPLC purity” value under setting [1] was 95%. Besides, under setting [2], the crude yield is 85%.
The substance “Fmoc-Glu(OtBu)-Glu(OtBu)-Glu(OtBu)-Ala-Val-Arg(CF3COOH)-Leu-Phe-Ile-Glu(OtBu)-Trp(Boc)-Leu-Lys(Boc)-Asn(Trt)-Gly-OH” registered a crude mass of 21.8 g. Under setting [1], the “crude HPLC purity” value is recorded as 95%. This substance showed a crude yield under setting [2] of 80%.
